PubChem BioAssay AID602196 – INSERM – 2012

Screen: 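Knock-downs that protect lung cancer cells from cisplatin or sensitise them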
Cell system: human A549 lung cancer cells
Reagents: siRNA pair against human genes
Duration: 48 h transfection before cisplatin; time from cisplatin to read-out not stated
Challenge: cisplatin at a dose killing half of control-siRNA cells; exact dose and duration not given
Detection: 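Cisplatin cell death as a shift from the 50% death seen with control siRNA; siRNAs toxic or growth-blocking alone scored 0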
Reading the numbers: two-siRNA summed score (-2 to +2): higher = both siRNAs protect from cisplatin killing; -2 means both sensitise; mean protection from cisplatin (shift in death) and protection from cisplatin (shift in death), siRNA C and protection from cisplatin (shift in death), siRNA D: higher = protection from cisplatin killing
Hit rule: 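siRNAs harmful alone (LDH or WST-1) get 0; others get +1 for less and -1 for more cisplatin killing; genes are active when the two siRNAs give the same sign, summing to ±2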
Meaning of the calls: active = both siRNAs shift cisplatin killing the same way; inactive = no consistent shift, or siRNA harmful alone
Here is one part, drawn at random, of about 23,000 reagents. 455 of them (2%) were called active. 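Active includes both protection and sensitisation; some change values fall well beyond the stated -50 to +50 range.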 Not stated in the record: the amount of reagent.

gene knocked down,two-siRNA summed score (-2 to +2),mean protection from cisplatin (shift in death) (%),"protection from cisplatin (shift in death), siRNA C (%)","protection from cisplatin (shift in death), siRNA D (%)",outcome
SKIC8,0,-4.6,-0.5,-8.8,inactive
YY1,0,-9,-6.7,-11.4,inactive
AKT3,1,13,2.1,23.9,inactive
GNG8,0,19.6,37.2,2,inactive
LOC131405,0,6.9,14.8,-1,inactive
ERMP1,0,-11.4,-16,-6.8,inactive
KIAA0232,1,20,19.5,20.5,inactive
MMP27,0,-1,7.7,-9.7,inactive
DNAH11,1,0.1,15.7,-15.5,inactive
HIP1R,0,12.1,17.3,6.9,inactive
LOC144448,0,16.5,12.3,20.7,inactive
AKT1S1,0,0.2,8.2,-7.7,inactive
OR5D16,0,6.6,7.9,5.3,inactive
LOC341651,0,6.8,0.5,13.1,inactive

Reformatted: entries from further up
gene knocked down | two-siRNA summed score (-2 to +2) | mean protection from cisplatin (shift in death) (%) | protection from cisplatin (shift in death), siRNA C (%) | protection from cisplatin (shift in death), siRNA D (%) | outcome
LOC131405 | 0 | 6.9 | 14.8 | -1 | inactive
ERMP1 | 0 | -11.4 | -16 | -6.8 | inactive
KIAA0232 | 1 | 20 | 19.5 | 20.5 | inactive

More results:
gene knocked down,two-siRNA summed score (-2 to +2),mean protection from cisplatin (shift in death) (%),"protection from cisplatin (shift in death), siRNA C (%)","protection from cisplatin (shift in death), siRNA D (%)",outcome
KYNU,0,0.8,4.3,-2.7,inactive
XPO4,0,3.3,-3.5,10.2,inactive
IGFL3,1,15.4,20,10.8,inactive
PIK3C2B,2,17.3,18.1,16.4,active
TMEM156,0,1.6,-3.2,6.3,inactive
HMHB1,0,-1,11.6,-13.6,inactive
LOC440826,-1,7.6,-10,25.2,inactive
OSGIN2,1,8.2,5.8,10.5,inactive
JRK,0,-3.3,-6.1,-0.5,inactive
